No constants are given. Whether binding was seen depends on the method and setting. A result given as binding can be weak or reduced; the word gives no strength. Where a sequence is shown, tags or fusion partners need not be part of it.
Target: BH3
Experiment: summary table; neither the assay nor the BH3-only partner is named on the sheet

binding	Binder
binds	FLAG Bcl-wΔC29 (protein, not shown: small tags and cut ends) MATPASAPDTRALVADFVGYKLRQKGYVCGAGPGEGPAADPLHQAMRAAGDEFETRFRRTFSDLAAQLHVTPGSAQQRFTQVSDELFQGGPNWGRLVAFFVFGAALCAESVNKEMEPLVGQVQEWMVAYLETRLADWIHSSGGWAEFTALYGDGALEEARRLRE
binds	FLAG Bcl-w (full-length, expressed in 293T cells) (protein, not shown: small tags and cut ends) MATPASAPDTRALVADFVGYKLRQKGYVCGAGPGEGPAADPLHQAMRAAGDEFETRFRRTFSDLAAQLHVTPGSAQQRFTQVSDELFQGGPNWGRLVAFFVFGAALCAESVNKEMEPLVGQVQEWMVAYLETRLADWIHSSGGWAEFTALYGDGALEEARRLREGNWASVRTVLTGAVALGALVTVGAFFASK
binds	FLAG Bcl-wΔC23 (protein, not shown: small tags and cut ends) MATPASAPDTRALVADFVGYKLRQKGYVCGAGPGEGPAADPLHQAMRAAGDEFETRFRRTFSDLAAQLHVTPGSAQQRFTQVSDELFQGGPNWGRLVAFFVFGAALCAESVNKEMEPLVGQVQEWMVAYLETRLADWIHSSGGWAEFTALYGDGALEEARRLREGNWASV
